Results are given in words; binding and its absence hold for the method and conditions named. In cells and extracts the contact can be indirect. These calls come from enrichment with a bait or labelling near it, and not all partners need be listed. Where a sequence is shown, tags or fusion partners need not be part of it.
T1: Hpr1 with a C-terminal FLAG-TEV-2xProtein-A (FTpA) tag (S. cerevisiae) (UniProt P17629)
T1 sequence: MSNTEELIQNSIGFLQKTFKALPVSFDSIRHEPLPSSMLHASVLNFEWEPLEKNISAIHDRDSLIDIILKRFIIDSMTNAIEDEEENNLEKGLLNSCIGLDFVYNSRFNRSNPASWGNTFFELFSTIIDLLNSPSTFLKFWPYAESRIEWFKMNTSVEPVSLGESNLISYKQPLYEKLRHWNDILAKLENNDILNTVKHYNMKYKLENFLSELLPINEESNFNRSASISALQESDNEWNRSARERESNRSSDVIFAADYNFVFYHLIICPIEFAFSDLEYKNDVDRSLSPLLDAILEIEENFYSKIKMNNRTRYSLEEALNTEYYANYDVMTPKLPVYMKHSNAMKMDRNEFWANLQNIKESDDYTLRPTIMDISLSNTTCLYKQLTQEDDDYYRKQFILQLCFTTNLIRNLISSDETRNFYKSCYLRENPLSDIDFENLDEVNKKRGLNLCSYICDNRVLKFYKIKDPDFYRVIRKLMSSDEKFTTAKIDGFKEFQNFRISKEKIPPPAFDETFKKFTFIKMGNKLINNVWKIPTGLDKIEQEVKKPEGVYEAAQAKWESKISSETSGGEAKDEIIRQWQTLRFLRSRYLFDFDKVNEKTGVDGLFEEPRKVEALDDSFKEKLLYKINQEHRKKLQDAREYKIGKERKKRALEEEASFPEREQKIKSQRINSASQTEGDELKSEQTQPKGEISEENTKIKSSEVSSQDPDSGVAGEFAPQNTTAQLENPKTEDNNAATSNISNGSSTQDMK


Biological target: T1, Hpr1 with a C-terminal FLAG-TEV-2xProtein-A (FTpA) tag (S. cerevisiae)
Experiment: affinity purification with mass spectrometry

Binder | binding
Gbp2 (protein, UniProt P25555 1-427) MERELGMYGNDRSRSRSPVRRRLSDDRDRYDDYNDSSSNNGNGSRRQRRDRGSRFNDRYDQSYGGSRYHDDRNWPPRRGGRGRGGSRSFRGGRGGGRGRTLGPIVERDLERQFDATKRNFENSIFVRNLTFDCTPEDLKELFGTVGEVVEADIITSKGHHRGMGTVEFTKNESVQDAISKFDGALFMDRKLMVRQDNPPPEAAKEFSKKATREEIDNGFEVFIINLPYSMNWQSLKDMFKECGHVLRADVELDFNGFSRGFGSVIYPTEDEMIRAIDTFNGMEVEGRVLEVREGRFNKRKNNDRYNQRREDLEDTRGTEPGLAQDAAVHIDETAAKFTEGVNPGGDRNCFIYCSNLPFSTARSDLFDLFGPIGKINNAELKPQENGQPTGVAVVEYENLVDADFCIQKLNNYNYGGCSLQISYARRD | binds
Sub2 (enzyme, UniProt Q07478 1-446) MSHEGEEDLLEYSDNEQEIQIDASKAAEAGETGAATSATEGDNNNNTAAGDKKGSYVGIHSTGFKDFLLKPELSRAIIDCGFEHPSEVQQHTIPQSIHGTDVLCQAKSGLGKTAVFVLSTLQQLDPVPGEVAVVVICNARELAYQIRNEYLRFSKYMPDVKTAVFYGGTPISKDAELLKNKDTAPHIVVATPGRLKALVREKYIDLSHVKNFVIDECDKVLEELDMRRDVQEIFRATPRDKQVMMFSATLSQEIRPICRRFLQNPLEIFVDDEAKLTLHGLQQYYIKLEEREKNRKLAQLLDDLEFNQVIIFVKSTTRANELTKLLNASNFPAITVHGHMKQEERIARYKAFKDFEKRICVSTDVFGRGIDIERINLAINYDLTNEADQYLHRVGRAGRFGTKGLAISFVSSKEDEEVLAKIQERFDVKIAEFPEEGIDPSTYLNN | binds
Hrb1 (protein, UniProt P38922 1-454) MSDQERGSENNNRSRSRSRSPVRRRMSDDHGYERDNHLSRRSGNYNGRRKFADTYRGSRDRGEYRGGRERSDYRERERFNNRDNPRSRDRYDDRRRGRDVTGRYGNRRDDYPRSFRSRHNTRDDSRRGGFGSSGARGDYGPLLARELDSTYEEKVNRNYSNSIFVGNLTYDSTPEDLTEFFSQIGKVVRADIITSRGHHRGMGTVEFTNSDDVDRAIRQYDGAFFMDRKIFVRQDNPPPSNNIKERKALDRGELRHNRKTHEVIVKNLPASVNWQALKDIFKECGNVAHADVELDGDGVSTGSGTVSFYDIKDLHRAIEKYNGYSIEGNVLDVKSKESVHNHSDGDDVDIPMDDSPVNEEARKFTENVVGGGERNRLIYCSNLPFSTAKSDLYDLFETIGKVNNAELRYDSKGAPTGIAVVEYDNVDDADVCIERLNNYNYGGCDLDISYAKRL | binds

Further lines, results first:

binding | Binder
binds | Thp2 (natural protein) MTKEEGRTYFESLCEEEQSLQESQTHLLNILDILSVLADPRSSDDLLTESLKKLPDLHRELINSSIRLRYDKYQTREAQLLEDTKTGRDVAAGVQNPKSISEYYSTFEHLNRDTLRYINLLKRLSVDLAKQVEVSDPSVTVYEMDKWVPSEKLQGILEQYCAPDTDIRGVDAQIKNYLDQIKMARAKFGLENKYSLKERLSTLTKELNHWRKEWDDIEMLMFGDDAHSMKKMIQKIDSLKSEINAPSESYPVDKEGDIVLE
binds | Tex1 (protein, UniProt P53851 1-422) MSTIGAVDILNQKTITSEVAASVTSKYLQSTFSKGNTSHIEDKRFIHVSSRSHSRFTSTPITPNEILSLKFHVSGSSMAYSRMDGSLTVWFIKDASFDKSVEVYIPDCCGSDKLATDLSWNPTSLNQIAVVSNSSEISLLLINEKSLTASKLRTLSLGSKTKVNTCLYDPLGNWLLAATKSEKIYLFDVKKDHSSVCSLNISDISQEDNDVVYSLAWSNGGSHIFIGFKSGYLAILKAKHGILEVCTKIKAHTGPITEIKMDPWGRNFITGSIDGNCYVWNMKSLCCELIINDLNSAVTTLDVCHLGKILGICTEDEMVYFYDLNSGNLLHSKSLANYKTDPVLKFYPDKSWYIMSGKNDTLSNHFVKNEKNLITYWKDMFDNTMIEKRRKNNGGGNNHNKRTSKNTDRIGKDRPSRFNSKK

— doi:10.1101/2023.06.23.546279 (bioRxiv, 2023)
